This is an account of results in paper PMC12040169 (PLOS Biology, 2025).

The list shows a part of the results.

The subject of the assay is T1, CTL2-GFP (C. trachomatis L2/434/Bu, GFP-expressing).
T1 construct: L2/434/Bu, GFP-expressing
More on the design: species or system HeLa; Intracellular C. trachomatis growth in HeLa cells, bulk GFP fluorescence relative to DMSO. The settings on record: bulk GFP, single well; 28.5 h, 10 µM; inhibitor.
With `O=C(O)c1nccnc1C(=O)N1CCC(O)(c2ccc(Cl)cc2)CC1` [CBK286621], the “% of control remaining” value turned out to be 123.33%.
Then `Cn1c(=O)n(C)c2cc(NC3=NS(=O)(=O)c4ccccc43)ccc21` [CBK270210], with 107.144%; and `Cc1nc(SCCn2cccn2)c2c(=O)n(C)c(=O)n(CC(C)C)c2n1` [CBK306321], with 101.469%; and `CSCCCNC(=O)N1CCCCC1CO` (stereo not shown) [CBK156163], with 109.395%.
`CCn1cc(CN2CCCC(c3cc4cccnc4[nH]3)C2)c(C)n1` (stereo not shown) [CBK284701]: the “% of control remaining” value is reported as 109.499%.
For `COc1ccc(Nc2nc(-c3ccccc3)c(C)s2)c(OC)c1` [CBK131709], the “% of control remaining” value worked out at 94.2135%.
The figure for `COc1ccc(N(CCN2CCCCC2)S(=O)(=O)c2ccc(C)cc2)cc1` [CBK261131] is 100%; for `Cc1onc(-c2ccccc2)c1C(=O)Nc1ccc(N2CCNCC2)c2ccccc12` [CBK038942T] it is 124.58%; for `COc1ccc(C(=O)/C=C/Nc2ccc(S(=O)(=O)NC(=N)N)cc2)cc1` [CBK262277] it is 127.766%.
Then `Cn1cc(CCCC(=O)NC2CCCOC2)c2ccccc21` (stereo not shown) [CBK282486], with 136.244%; and `CCN(CC)C(=O)NC(c1ccccc1OC)c1nccn1C` (stereo not shown) [CBK283803], with 130.266%; and `CN(C)CCN(C)c1cc(-c2cccc(-c3ccccc3)c2)ncn1` [CBK037763], with 205.243%.
Then `Cc1nn(Cc2ccccc2)c(C)c1CC(=O)NCCn1ccnc1` [CBK282095], with 127.574%; and `CCOC(=O)Cc1csc(SC(C)C(=O)N2CCCc3ccccc32)n1` (stereo not shown) [CBK304228], with 131.48%; and `CN1CCC(N2CCN(C(=O)c3ccc4nc[nH]c4c3)CC2)CC1` [CBK149099], with 113.906%.
In the case of `COc1ccc(Nc2ncc(C(=O)NCCCN3CCCC3)c3ccccc23)cc1` [CBK291114], the “% of control remaining” value is 98.1127%.
The figure for `Oc1ccc2[nH]cc(CCNC(c3ccccc3)(c3ccccc3)c3ccccc3)c2c1` [CBK260891] is 66.2745%; for `COC(=O)c1cc(C#N)c(=O)n(CC(O)COc2c(C)cccc2C)c1` (stereo not shown) [CBK305709] it is 117.046%.
Then `Cc1c(-c2ccc(Cl)cc2Cl)nc2ccccc2c1C(=O)NCCCc1ccccc1` [CBK262635], with 80.7101%.
The figure for `CC1(C)NC(=O)N(CC(O)CNC23CC4CC(CC(C4)C2)C3)C1=O` (stereo not shown) [CBK264823] is 131.605%; for `CCOC(=O)c1[nH]c2ccccc2c1NC(=O)CS(=O)(=O)c1ccc(C)cc1` [CBK160162] it is 146.367%; for `COc1ncc(-c2cnc3[nH]c(=O)n([C@H](C)c4ccccc4)c3n2)cn1` [CBK064401] it is 89.5188%.
In the case of `CC(c1ccc(Cl)cc1Cl)N(C)C(=O)c1ccc(S(C)(=O)=O)cc1` (stereo not shown) [CBK242418], the “% of control remaining” value is 109.351%.
Take `CN(C)c1ccc(C2C(C(=O)c3ccccc3)=C(O)C(=O)N2CCCC(=O)O)cc1` (stereo not shown) [CBK263393]: the “% of control remaining” value is given as 117.894%.
The figure for `CCn1c(C(C)Oc2ccc(Cl)cc2)n[nH]c1=S` (stereo not shown) [CBK015099] is 105.471%; for `Nc1ccccc1SC(CC(=O)c1ccccc1)c1ccc2c(c1)OCO2` (stereo not shown) [CBK074823] it is 100.139%; for `NC(=O)c1ccccc1NC(=O)CCN1C(=O)c2cccc([N+](=O)[O-])c2C1=O` [CBK263118] it is 91.1468%.
As for `C=C(C)CN1CCN(C(=O)c2ccnc3ccc(Cl)cc23)CC1` [CBK282617], the “% of control remaining” value is reported as 89.5298%.
Then `Cc1nc(S(=O)(=O)N2CCOC3(CCCC3)C2)cn1C` [CBK304834], with 87.0559%; and `CC(C)c1ccc(NS(=O)(=O)c2ccc(F)c(C(=O)O)c2)cc1` [CBK297940], with 155.509%; and `Fc1ccc(CCN2CCC(c3nc(-c4cccnc4)no3)CC2)cc1` [CBK051464], with 125.145%.
Then `Cc1cccc(OCC(=O)NC(=S)Nc2cccc(C(=O)O)c2C)c1` [CBK265067], with 88.259%; and `O=C(O)c1ccc(S(=O)(=O)NCc2ccccc2)cc1` [CBK262093], with 100%.
The figure for `O=C(Cn1c(-c2ccco2)cc2cccnc21)N1CCCC1` [CBK282683] is 108.438%.
In the case of `Cc1nc(CN2CCN(c3ccc4nnc(C(F)(F)F)n4n3)CC2)cs1` [CBK239750], the “% of control remaining” value is reported as 151.708%.
Then `COc1cccc2ncn(CCCc3c(C)n[nH]c3C)c(=O)c12` [CBK307153], with 107.822%; and `OCCOc1ncnc2ccccc12` [CBK001412], with 120.528%.
The figure for `COc1ccc(C(C)C)cc1-c1nccnc1NCCc1c[nH]c2ccccc12` [CBK036650] is 161.952%; for `CC(C)c1csc(CNC(=O)NC2CCCN(c3ccn(C)n3)C2=O)n1` (stereo not shown) [CBK304447] it is 121.851%; for `Cc1[nH]c(=O)c(S(=O)(=O)c2ccccc2)c(C)c1Cl` [CBK018736] it is 115.346%.
Then `O=C(CCC1CCCC1)n1ccn(-c2ccc3c(c2)OCO3)c1=O` [CBK106631], with 103.842%; and `O=C(C1=C(O)C(=O)N(CCCn2ccnc2)C1c1cccc([N+](=O)[O-])c1)c1ccc(F)cc1` (stereo not shown) [CBK264571], with 100%; and `CC(=O)Nc1ccc(S(=O)(=O)N2CC[C@H](c3nc4ccccc4o3)C2)cc1` [CBK289373], with 137.388%.
As to `Cc1ccc(Cl)cc1NC(=O)c1cc(NC(=O)C2CCCCC2C(=O)O)ccc1N1CCCCC1` (stereo not shown) [CBK268371], the “% of control remaining” value is reported as 113.954%.
Then `Cn1nc(-c2ccc(S(=O)(=O)Nc3nnc(C(F)(F)F)s3)s2)cc1C(F)(F)F` [CBK062017], with 109.23%; and `COc1cc(Nc2cncc(-c3ccc(O)cc3)n2)c(Cl)cc1C(=O)NCC(F)(F)F` [CBK126470], with 135.275%.
The figure for `O=C(Nc1nnc(-c2ccncc2)o1)c1ccc(F)cc1` [CBK287431] is 132.619%.
Then `COc1ccc(C(=O)N2CCC3(CCCN(C(=O)c4c(F)cccc4F)C3)C2)cc1OC` (stereo not shown) [CBK131669], with 86.5936%; and `O=C(NC1CCCC1)c1ccc2c(c1)OCO2` [CBK002177], with 129.969%.
In the case of `CN1CCN(NC(=O)CSc2ccccc2)CC1` [CBK268142], the “% of control remaining” value is on record as 113.048%.
Then `COc1ccc(C2NCCc3c2[nH]c2ccccc32)cc1CN1CCN(c2ccc(F)cc2)CC1` (stereo not shown) [CBK264178C], with 100.475%; and `CC1SC(c2cc3ccccc3o2)N(c2ccc(F)cc2F)C1=O` (stereo not shown) [CBK006917], with 98.6689%; and `COc1ccccc1CCCNC(=O)CC1CCCCN1C` (stereo not shown) [CBK282694], with 101.782%.
The figure for `CC(C)NC(=S)N1CC[C@@]2(NC(N)=O)N=C(N)O[C@H]2C1` [CBK010049] is 156.464%.
Regarding `C[C@@H]1CN(C(=O)OCCc2ccsc2)C[C@H](C)O1` [CBK200417], the “% of control remaining” value is reported as 118.833%.
Then `O=C(COc1ccc(Br)cc1)Nc1ccc(CN2CCCCC2)cc1` [CBK266181], with 160.361%; and `Cc1cc(C)n(CC2CN(C(C)C(=O)NCc3ccco3)CCO2)n1` (stereo not shown) [CBK305351], with 122.947%.
The figure for `O=S1(=O)Cc2ccccc2C(Oc2cncc(N3CCNCC3)n2)C1` (stereo not shown) [CBK172344T] is 140.201%; for `CN(C)Cc1cnn(-c2ccc(Oc3ccccc3)cc2)n1` [CBK112865] it is 126.174%; for `CCc1ccc(/C=C2/SC(=S)N(CCC(=O)O)C2=O)cc1` [CBK263390] it is 111.222%.
Then `Cc1sc2ncn(CC(=O)NCCCN3CCCCC3)c(=O)c2c1C` [CBK305831], with 105.247%; and `COC(=O)c1sccc1OCc1nnc(-c2ccc(Cl)c(Cl)c2)o1` [CBK067742], with 98.945%; and `O=C(C(OCC(F)(F)F)c1ccccc1)N1CCN(c2nccs2)CC1` (stereo not shown) [CBK298299], with 97.9748%.
Take `CCN(CC)CCCNC(=O)N1CCCC(CO)C1` (stereo not shown) [CBK156061]: the “% of control remaining” value was found to be 89.2869%.
The figure for `O=C(O)c1cccc(NCN2C(=O)c3ccc([N+](=O)[O-])cc3C2=O)c1` [CBK261100] is 89.7549%.
The figure for `Cc1cc(C(=O)NC(Cc2c[nH]c3ccccc23)C(=O)O)c(C)o1` (stereo not shown) [CBK286560] is 118.86%; for `O=C(O)CCC(=O)NNC(=O)c1ccccc1[N+](=O)[O-]` [CBK261079] it is 109.755%.
For the molecule `CCc1cc2c(=O)c(-c3cnn(-c4ccccc4)c3)c(C(F)(F)F)oc2c(CN(C)C)c1O` [CBK264530], the “% of control remaining” value was found to be 100%.
As for `O=C(c1cc(S(=O)(=O)N2CCOCC2)ccc1Cl)N1CCCCC1CO` (stereo not shown) [CBK304579], the “% of control remaining” value was 108.776%.
Then `Cc1ccc(C(C)C)c(OCC(O)CNC(C)C)c1` (stereo not shown) [CBK026604C], with 126.559%; and `O=C(CCn1cc(Br)ccc1=O)NC1CCN(Cc2ccccc2)CC1` [CBK305778], with 100.712%.
The figure for `CCN1CCCCC1CNC(=O)c1n[nH]c2c1CCC2` (stereo not shown) [CBK282207] is 142.857%.
Then `Cc1cc(CC(=O)NCCc2c[nH]c3ccc(Cl)cc23)on1` [CBK159774], with 88.8426%.
Consider `CCCCN(C=O)c1c(CC)nc2ccc(C(=O)Nc3ccc(Cl)c(Cl)c3)cn12` [CBK145470], for which the “% of control remaining” value stood at 138.707%.
Then `CN(C)CCN(Cc1ccncc1)Cc1ccsc1` [CBK283206], with 115.982%; and `Cc1cccnc1C(NC(=O)C1CCN(CCCN2C(=O)CC3CCCCC3C2=O)CC1)c1ccc(F)cc1` (stereo not shown) [CBK147910], with 102.167%.
The figure for `CCCC/C=C/c1cn2ccnc2c(NCc2cc(OC)c(OC)c(OC)c2)n1` [CBK066331] is 153.951%.
Then `Cc1nc(-c2ccc(CNS(=O)(=O)c3ccc(Cl)cc3)cc2)ccc1C(N)=O` [CBK285643], with 138.477%; and `CCCC/C=C/c1nccnc1N[C@@H](CO)C(C)C` [CBK037514], with 117.858%.
